The other results are listed elsewhere or left out.
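Note: competitive chemoproteomic profiling in live THP-1 cells with an iodoacetamide desthiobiotin (IA-DTB) probe, comparing probe-labelled peptide intensities in compound-treated cells against DMSO-treated controls.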

By UniProt entry, the sequences of proteins in these tests, tags left out. Where a name states a change or a piece, a line headed by the entry shows the natural chain unless it says otherwise.
UniProt P0CJ78: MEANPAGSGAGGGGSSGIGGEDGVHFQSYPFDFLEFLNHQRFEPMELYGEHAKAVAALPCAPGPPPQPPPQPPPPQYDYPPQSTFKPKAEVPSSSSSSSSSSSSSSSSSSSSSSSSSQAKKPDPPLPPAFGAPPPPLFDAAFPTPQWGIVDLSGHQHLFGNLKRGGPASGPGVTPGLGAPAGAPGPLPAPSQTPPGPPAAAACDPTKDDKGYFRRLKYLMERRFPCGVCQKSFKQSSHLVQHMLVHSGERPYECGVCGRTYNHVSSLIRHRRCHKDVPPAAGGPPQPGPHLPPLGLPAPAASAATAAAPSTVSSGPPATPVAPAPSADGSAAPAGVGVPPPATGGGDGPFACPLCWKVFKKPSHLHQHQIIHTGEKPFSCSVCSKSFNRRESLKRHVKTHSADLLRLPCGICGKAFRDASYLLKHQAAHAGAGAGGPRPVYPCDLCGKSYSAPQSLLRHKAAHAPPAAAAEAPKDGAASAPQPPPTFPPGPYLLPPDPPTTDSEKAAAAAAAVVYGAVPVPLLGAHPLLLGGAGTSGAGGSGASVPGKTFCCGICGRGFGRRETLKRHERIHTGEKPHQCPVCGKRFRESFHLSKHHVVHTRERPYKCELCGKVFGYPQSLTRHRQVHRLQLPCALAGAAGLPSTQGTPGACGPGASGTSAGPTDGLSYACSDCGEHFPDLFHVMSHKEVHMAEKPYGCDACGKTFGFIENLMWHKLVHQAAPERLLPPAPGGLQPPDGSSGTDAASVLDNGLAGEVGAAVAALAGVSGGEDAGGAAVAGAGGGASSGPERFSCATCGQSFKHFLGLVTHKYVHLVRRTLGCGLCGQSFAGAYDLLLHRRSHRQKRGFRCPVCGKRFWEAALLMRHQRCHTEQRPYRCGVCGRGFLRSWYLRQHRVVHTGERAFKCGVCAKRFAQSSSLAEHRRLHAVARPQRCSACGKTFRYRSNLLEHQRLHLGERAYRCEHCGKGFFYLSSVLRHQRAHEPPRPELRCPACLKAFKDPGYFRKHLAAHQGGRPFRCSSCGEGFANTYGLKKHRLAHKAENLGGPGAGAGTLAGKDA
UniProt Q9P2E3: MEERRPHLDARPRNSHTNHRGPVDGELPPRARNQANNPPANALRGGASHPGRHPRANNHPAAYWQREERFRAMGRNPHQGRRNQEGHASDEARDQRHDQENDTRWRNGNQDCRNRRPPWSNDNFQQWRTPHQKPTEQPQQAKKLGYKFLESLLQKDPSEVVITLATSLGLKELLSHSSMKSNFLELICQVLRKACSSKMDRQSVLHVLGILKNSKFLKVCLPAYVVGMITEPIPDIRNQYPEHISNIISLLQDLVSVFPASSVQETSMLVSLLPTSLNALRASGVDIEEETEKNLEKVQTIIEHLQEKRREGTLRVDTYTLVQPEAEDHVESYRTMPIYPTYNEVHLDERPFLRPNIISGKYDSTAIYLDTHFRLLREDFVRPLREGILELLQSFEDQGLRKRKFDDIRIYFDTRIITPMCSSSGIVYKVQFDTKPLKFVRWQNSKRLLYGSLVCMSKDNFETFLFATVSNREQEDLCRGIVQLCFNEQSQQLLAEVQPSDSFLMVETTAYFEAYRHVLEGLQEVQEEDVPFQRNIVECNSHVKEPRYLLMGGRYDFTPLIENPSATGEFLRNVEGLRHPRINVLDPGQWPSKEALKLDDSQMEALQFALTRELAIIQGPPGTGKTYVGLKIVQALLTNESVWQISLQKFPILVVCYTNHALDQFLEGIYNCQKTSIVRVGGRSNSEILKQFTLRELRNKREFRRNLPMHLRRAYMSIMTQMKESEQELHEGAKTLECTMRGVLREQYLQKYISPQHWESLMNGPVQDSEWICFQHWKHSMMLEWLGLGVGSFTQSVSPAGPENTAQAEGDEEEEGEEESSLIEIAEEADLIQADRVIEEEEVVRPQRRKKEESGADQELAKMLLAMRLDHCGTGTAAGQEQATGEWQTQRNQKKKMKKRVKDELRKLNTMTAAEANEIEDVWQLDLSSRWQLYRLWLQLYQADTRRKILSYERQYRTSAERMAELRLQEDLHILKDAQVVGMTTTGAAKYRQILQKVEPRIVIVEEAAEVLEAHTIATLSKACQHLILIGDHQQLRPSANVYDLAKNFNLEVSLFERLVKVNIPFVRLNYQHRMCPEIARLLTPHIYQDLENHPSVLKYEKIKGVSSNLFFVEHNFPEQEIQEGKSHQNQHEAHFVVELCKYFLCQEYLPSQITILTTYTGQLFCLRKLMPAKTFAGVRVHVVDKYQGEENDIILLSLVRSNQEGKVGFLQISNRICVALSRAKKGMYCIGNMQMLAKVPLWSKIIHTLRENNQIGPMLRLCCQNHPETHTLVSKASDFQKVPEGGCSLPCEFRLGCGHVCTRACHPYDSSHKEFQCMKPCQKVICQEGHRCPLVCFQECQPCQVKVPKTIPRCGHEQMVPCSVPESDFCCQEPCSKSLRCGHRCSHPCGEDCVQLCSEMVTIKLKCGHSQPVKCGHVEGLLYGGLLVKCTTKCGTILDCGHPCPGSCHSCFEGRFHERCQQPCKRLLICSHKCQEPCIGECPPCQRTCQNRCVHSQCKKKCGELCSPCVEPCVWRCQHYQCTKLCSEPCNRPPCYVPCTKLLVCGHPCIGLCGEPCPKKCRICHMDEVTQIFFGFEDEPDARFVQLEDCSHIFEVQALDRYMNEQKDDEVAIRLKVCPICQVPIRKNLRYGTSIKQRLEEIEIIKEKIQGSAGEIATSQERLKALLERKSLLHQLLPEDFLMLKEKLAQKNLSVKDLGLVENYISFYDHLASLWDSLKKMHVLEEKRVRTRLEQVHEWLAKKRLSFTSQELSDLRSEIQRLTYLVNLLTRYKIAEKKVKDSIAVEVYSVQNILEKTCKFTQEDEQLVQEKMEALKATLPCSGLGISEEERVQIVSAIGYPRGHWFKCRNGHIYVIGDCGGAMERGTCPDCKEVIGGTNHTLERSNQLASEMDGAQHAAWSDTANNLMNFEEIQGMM
UniProt Q15942: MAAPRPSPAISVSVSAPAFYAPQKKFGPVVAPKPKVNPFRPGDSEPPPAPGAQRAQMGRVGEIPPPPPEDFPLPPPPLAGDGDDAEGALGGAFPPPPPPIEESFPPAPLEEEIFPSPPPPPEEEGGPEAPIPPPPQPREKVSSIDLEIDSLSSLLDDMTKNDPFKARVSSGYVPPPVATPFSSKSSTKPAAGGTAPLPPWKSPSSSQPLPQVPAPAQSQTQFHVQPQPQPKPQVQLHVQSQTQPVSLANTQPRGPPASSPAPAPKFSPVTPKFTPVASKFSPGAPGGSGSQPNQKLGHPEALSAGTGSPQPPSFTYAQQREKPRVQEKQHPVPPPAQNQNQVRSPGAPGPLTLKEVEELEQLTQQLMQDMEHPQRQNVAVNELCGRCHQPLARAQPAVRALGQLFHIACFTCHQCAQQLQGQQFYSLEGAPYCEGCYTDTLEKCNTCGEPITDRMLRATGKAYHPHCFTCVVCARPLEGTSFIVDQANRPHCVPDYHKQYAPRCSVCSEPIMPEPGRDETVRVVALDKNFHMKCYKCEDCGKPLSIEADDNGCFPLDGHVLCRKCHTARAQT
UniProt Q6DD87: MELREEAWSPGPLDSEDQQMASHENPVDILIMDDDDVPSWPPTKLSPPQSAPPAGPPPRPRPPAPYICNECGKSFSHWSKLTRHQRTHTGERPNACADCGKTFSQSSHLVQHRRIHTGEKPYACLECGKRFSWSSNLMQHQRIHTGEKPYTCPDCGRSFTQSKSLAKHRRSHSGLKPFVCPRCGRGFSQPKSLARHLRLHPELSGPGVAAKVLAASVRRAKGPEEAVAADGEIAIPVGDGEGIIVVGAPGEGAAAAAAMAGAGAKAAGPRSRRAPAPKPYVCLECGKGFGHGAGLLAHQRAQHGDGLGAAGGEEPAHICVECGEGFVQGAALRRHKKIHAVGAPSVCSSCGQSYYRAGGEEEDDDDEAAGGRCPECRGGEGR
UniProt O95218: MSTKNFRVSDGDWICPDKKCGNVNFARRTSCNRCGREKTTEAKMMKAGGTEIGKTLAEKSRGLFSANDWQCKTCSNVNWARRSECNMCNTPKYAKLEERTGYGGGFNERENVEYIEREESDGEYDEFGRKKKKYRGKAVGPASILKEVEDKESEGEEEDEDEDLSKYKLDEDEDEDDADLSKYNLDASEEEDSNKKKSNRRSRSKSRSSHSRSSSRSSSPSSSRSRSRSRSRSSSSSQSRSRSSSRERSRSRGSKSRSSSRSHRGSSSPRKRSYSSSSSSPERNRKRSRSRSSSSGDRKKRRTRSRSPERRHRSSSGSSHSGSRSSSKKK
UniProt Q9BU19: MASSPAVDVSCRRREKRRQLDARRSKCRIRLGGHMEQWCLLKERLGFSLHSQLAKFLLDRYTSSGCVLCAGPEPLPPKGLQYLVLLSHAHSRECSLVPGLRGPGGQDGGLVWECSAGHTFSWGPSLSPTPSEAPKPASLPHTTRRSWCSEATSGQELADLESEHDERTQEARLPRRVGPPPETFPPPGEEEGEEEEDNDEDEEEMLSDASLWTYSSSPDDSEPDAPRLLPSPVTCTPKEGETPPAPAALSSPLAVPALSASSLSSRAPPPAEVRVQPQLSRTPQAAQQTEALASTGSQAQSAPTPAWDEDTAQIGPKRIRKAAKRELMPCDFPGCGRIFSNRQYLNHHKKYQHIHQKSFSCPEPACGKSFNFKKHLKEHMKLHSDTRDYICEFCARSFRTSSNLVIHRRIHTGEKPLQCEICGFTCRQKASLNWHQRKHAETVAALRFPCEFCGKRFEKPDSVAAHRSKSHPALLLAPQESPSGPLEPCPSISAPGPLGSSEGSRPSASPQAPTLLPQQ
UniProt P17098: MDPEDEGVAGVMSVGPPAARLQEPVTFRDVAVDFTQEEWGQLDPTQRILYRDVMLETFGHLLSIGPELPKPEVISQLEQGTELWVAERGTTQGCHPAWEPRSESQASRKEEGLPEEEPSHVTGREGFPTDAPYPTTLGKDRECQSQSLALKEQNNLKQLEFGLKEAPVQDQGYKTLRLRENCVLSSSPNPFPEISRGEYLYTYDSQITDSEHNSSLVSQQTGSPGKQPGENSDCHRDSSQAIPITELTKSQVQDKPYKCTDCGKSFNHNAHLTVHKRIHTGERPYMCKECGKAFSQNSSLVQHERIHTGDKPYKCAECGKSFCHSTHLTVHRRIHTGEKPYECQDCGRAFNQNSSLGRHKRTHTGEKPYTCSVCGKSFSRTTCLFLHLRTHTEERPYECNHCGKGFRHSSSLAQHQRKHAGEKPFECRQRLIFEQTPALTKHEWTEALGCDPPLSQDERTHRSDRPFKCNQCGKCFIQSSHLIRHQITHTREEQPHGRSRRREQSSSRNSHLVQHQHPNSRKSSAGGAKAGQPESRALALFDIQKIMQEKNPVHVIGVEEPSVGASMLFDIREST
UniProt O43264: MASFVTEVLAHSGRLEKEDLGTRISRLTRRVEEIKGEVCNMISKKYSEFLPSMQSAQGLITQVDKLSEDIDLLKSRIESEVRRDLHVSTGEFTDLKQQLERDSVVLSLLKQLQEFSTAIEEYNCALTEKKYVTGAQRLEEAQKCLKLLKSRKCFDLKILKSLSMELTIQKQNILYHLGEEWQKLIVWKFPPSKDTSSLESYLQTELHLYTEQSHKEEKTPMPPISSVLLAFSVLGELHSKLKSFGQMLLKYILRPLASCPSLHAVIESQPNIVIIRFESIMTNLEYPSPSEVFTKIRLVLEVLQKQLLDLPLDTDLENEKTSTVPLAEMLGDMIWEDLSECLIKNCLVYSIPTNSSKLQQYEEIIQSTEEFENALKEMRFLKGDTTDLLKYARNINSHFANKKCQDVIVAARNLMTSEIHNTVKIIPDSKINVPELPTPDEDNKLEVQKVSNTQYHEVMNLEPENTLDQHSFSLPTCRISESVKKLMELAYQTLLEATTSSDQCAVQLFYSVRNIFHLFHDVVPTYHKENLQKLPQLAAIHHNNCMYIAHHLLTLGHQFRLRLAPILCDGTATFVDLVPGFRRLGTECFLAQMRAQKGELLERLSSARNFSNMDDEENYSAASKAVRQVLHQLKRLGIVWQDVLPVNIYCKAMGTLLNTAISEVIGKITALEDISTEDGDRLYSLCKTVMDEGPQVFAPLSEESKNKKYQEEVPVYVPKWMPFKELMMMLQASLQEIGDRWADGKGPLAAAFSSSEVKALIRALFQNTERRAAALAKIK
UniProt Q5VV52: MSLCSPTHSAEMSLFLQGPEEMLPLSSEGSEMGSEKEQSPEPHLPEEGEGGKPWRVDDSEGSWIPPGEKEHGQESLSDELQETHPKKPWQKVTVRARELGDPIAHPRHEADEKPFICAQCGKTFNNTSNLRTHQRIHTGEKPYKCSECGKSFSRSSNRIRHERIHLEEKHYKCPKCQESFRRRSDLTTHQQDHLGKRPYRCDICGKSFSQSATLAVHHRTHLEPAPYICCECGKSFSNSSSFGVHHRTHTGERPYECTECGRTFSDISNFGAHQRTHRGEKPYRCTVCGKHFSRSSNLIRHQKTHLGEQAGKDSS
UniProt Q9P1U0, whole entry, looked up: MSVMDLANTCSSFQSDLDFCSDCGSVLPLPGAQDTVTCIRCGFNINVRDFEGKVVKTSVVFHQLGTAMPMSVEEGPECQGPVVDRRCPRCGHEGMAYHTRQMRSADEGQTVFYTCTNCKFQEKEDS

Compound in one assay: CC1Cc2ccccc2N1C(=O)C1CCCN(C1)C(=O)CCl (mixture of isomers) [TRIM25 ligand 11 (diastereomer mixture)]
The experiment in a line: probe-labelled cysteine peptide fold change vs DMSO (competition) (log2 fold change); higher = less target engagement (more negative = stronger competition). The following applies: 10 µM; THP-1; incubation time: 4 h.
For the target “ZNF865_P0CJ78_383_PFSCSVCSK (UniProt P0CJ78)”, the “probe-labelled cysteine peptide fold change” value was -0.0827.
With “ZNFX1_Q9P2E3_1558_LLVCGHPCIGLCGEPCPK (UniProt Q9P2E3)”, the “probe-labelled cysteine peptide fold change” value was found to be 0.0303.
Regarding “ZZEF1_O43149_1287_NIPDDPCR (UniProt O43149)”, the “probe-labelled cysteine peptide fold change” value was -0.0538.
For the target “ZYX_Q15942_447_CNTCGEPITDR (UniProt Q15942)”, the “probe-labelled cysteine peptide fold change” value was 0.164.
Still for that read-out and setting: next, “ZYX_Q15942_467+470+473_AYHPHCFTCVVCAR (UniProt Q15942)”: -0.241; “ZZEF1_O43149_2932_CAAQALQNIAAISLAINYPNK (UniProt O43149)”: 0.109.
As for “ZNF787_Q6DD87_350_IHAVGAPSVCSSCGQSYYR (UniProt Q6DD87)”, the “probe-labelled cysteine peptide fold change” value is -0.111.
For the target “ZYX_Q15942_507_CSVCSEPIMPEPGRDETVR (UniProt Q15942)”, the “probe-labelled cysteine peptide fold change” value is -0.134.
With “ZRANB2_O95218_85_RSECNMCNTPK (UniProt O95218)”, the “probe-labelled cysteine peptide fold change” value was -0.125.
Take “ZWILCH_Q9H900_7_LNCAAEDFYSR (UniProt Q9H900)”: the “probe-labelled cysteine peptide fold change” value was 0.0467.
Regarding “ZRANB2_O95218_20_KCGNVNFAR (UniProt O95218)”, the “probe-labelled cysteine peptide fold change” value is -0.118.
For the target “ZZEF1_O43149_2466_ICFLMAHDALNAPLHILR (UniProt O43149)”, the “probe-labelled cysteine peptide fold change” value is -0.0256.
On to “ZNF692_Q9BU19_235_LLPSPVTCTPK (UniProt Q9BU19)”, for which the “probe-labelled cysteine peptide fold change” value was -0.149.
As to “ZNF8_P17098_450_HEWTEALGCDPPLSQDER (UniProt P17098)”, the “probe-labelled cysteine peptide fold change” value is -0.0363.
As for “ZNHIT2_Q9UHR6_361_CQFLLAWTNENEAALTPLALDCAR (UniProt Q9UHR6)”, the “probe-labelled cysteine peptide fold change” value is -0.211.
Take “ZNF692_Q9BU19_366_SFSCPEPACGK (UniProt Q9BU19)”: the “probe-labelled cysteine peptide fold change” value is -0.00798.
“ZW10_O43264_588_RLGTECFLAQMR (UniProt O43264)”: the “probe-labelled cysteine peptide fold change” value was -0.0254.
As for “ZYX_Q15942_540+553_CEDCGKPLSIEADDNGCFPLDGHVLCR (UniProt Q15942)”, the “probe-labelled cysteine peptide fold change” value was -0.143.
Same read-out and setting: to “ZNF746_Q6NUN9_518_CFTRPAHLIR (UniProt Q6NUN9)” belongs -0.0514; to “ZSWIM8_A7E2V4_979_TTVSEAEHPLLCEGTR (UniProt A7E2V4)”, -0.0561.
Turning to “ZZEF1_O43149_1259_HQVCPELELEASWPTHPHR (UniProt O43149)”, the “probe-labelled cysteine peptide fold change” value is -0.00151.
As to “ZW10_O43264_124_QLQEFSTAIEEYNCALTEK (UniProt O43264)”, the “probe-labelled cysteine peptide fold change” value was -0.047.
“ZYX_Q15942_504_CSVCSEPIMPEPGR (UniProt Q15942)”: the “probe-labelled cysteine peptide fold change” value was -0.16.
For “ZYX_Q15942_504+507_CSVCSEPIMPEPGRDETVR (UniProt Q15942)”, the “probe-labelled cysteine peptide fold change” value was 0.0308.
In the case of “ZYX_Q15942_470+473_AYHPHCFTCVVCAR (UniProt Q15942)”, the “probe-labelled cysteine peptide fold change” value is -0.037.
In the case of “ZNHIT6_Q9NWK9_244_YSCSLPCVK (UniProt Q9NWK9)”, the “probe-labelled cysteine peptide fold change” value is -0.0986.
Regarding “ZNFX1_Q9P2E3_1554_LLVCGHPCIGLCGEPCPK (UniProt Q9P2E3)”, the “probe-labelled cysteine peptide fold change” value came to 0.125.
Consider “ZNF691_Q5VV52_257_THTGERPYECTECGR (UniProt Q5VV52)”, for which the “probe-labelled cysteine peptide fold change” value came to 0.0167.
Same read-out and setting: next, “ZW10_O43264_650_LGIVWQDVLPVNIYCK (UniProt O43264)”: 0.0783; “ZNHIT2_Q9UHR6_188_VLGDVPGACTPVVPTR (UniProt Q9UHR6)”: 0.127.
“ZYX_Q15942_537+553_CEDCGKPLSIEADDNGCFPLDGHVLCR (UniProt Q15942)”: the “probe-labelled cysteine peptide fold change” value is -0.198.
Same read-out and setting: to “ZSWIM8_A7E2V4_1365_AAAELALSCLPHAHALNPNEIQR (UniProt A7E2V4)” belongs -0.283; to “ZYX_Q15942_444_CNTCGEPITDR (UniProt Q15942)”, -0.134; to “ZW10_O43264_477_VSNTQYHEVMNLEPENTLDQHSFSLPTCR (UniProt O43264)”, -0.0262.
For the target “ZNRD1_Q9P1U0_90_CGHEGMAYHTR (UniProt Q9P1U0)”, the “probe-labelled cysteine peptide fold change” value is -0.117.

Staying with this assay, now noted: 50 µM; THP-1; incubation time: 4 h.
In the case of “ZNF865_P0CJ78_383_PFSCSVCSK (UniProt P0CJ78)”, the “probe-labelled cysteine peptide fold change” value was -0.0857.
As to “ZNFX1_Q9P2E3_1558_LLVCGHPCIGLCGEPCPK (UniProt Q9P2E3)”, the “probe-labelled cysteine peptide fold change” value is -0.113.
With “ZZEF1_O43149_1287_NIPDDPCR (UniProt O43149)”, the “probe-labelled cysteine peptide fold change” value is -0.11.
Same read-out and setting: next, “ZYX_Q15942_447_CNTCGEPITDR (UniProt Q15942)”: 0.167; “ZYX_Q15942_467+470+473_AYHPHCFTCVVCAR (UniProt Q15942)”: -0.3.
On to “ZZEF1_O43149_2932_CAAQALQNIAAISLAINYPNK (UniProt O43149)”, for which the “probe-labelled cysteine peptide fold change” value is 0.032.
Same read-out and setting: next, “ZNF787_Q6DD87_350_IHAVGAPSVCSSCGQSYYR (UniProt Q6DD87)”: -0.085.
Take “ZYX_Q15942_507_CSVCSEPIMPEPGRDETVR (UniProt Q15942)”: the “probe-labelled cysteine peptide fold change” value was -0.122.
For the target “ZRANB2_O95218_85_RSECNMCNTPK (UniProt O95218)”, the “probe-labelled cysteine peptide fold change” value was -0.22.
As to “ZWILCH_Q9H900_7_LNCAAEDFYSR (UniProt Q9H900)”, the “probe-labelled cysteine peptide fold change” value was 0.0431.
For the target “ZRANB2_O95218_20_KCGNVNFAR (UniProt O95218)”, the “probe-labelled cysteine peptide fold change” value is -0.137.
As to “ZZEF1_O43149_2466_ICFLMAHDALNAPLHILR (UniProt O43149)”, the “probe-labelled cysteine peptide fold change” value worked out at 0.00418.
For the target “ZNF692_Q9BU19_235_LLPSPVTCTPK (UniProt Q9BU19)”, the “probe-labelled cysteine peptide fold change” value is -0.243.
As to “ZNF8_P17098_450_HEWTEALGCDPPLSQDER (UniProt P17098)”, the “probe-labelled cysteine peptide fold change” value was -0.105.
Same read-out and setting: to “ZNHIT2_Q9UHR6_361_CQFLLAWTNENEAALTPLALDCAR (UniProt Q9UHR6)” belongs -0.0994; to “ZNF692_Q9BU19_366_SFSCPEPACGK (UniProt Q9BU19)”, 0.0618.
“ZW10_O43264_588_RLGTECFLAQMR (UniProt O43264)”: the “probe-labelled cysteine peptide fold change” value was determined as 0.0074.
Turning to “ZYX_Q15942_540+553_CEDCGKPLSIEADDNGCFPLDGHVLCR (UniProt Q15942)”, the “probe-labelled cysteine peptide fold change” value was -0.0851.
Still for that read-out and setting: next, “ZNF746_Q6NUN9_518_CFTRPAHLIR (UniProt Q6NUN9)”: 0.023; “ZSWIM8_A7E2V4_979_TTVSEAEHPLLCEGTR (UniProt A7E2V4)”: -0.0308.
For the target “ZZEF1_O43149_1259_HQVCPELELEASWPTHPHR (UniProt O43149)”, the “probe-labelled cysteine peptide fold change” value amounted to 0.062.
Take “ZW10_O43264_124_QLQEFSTAIEEYNCALTEK (UniProt O43264)”: the “probe-labelled cysteine peptide fold change” value was -0.177.
As for “ZYX_Q15942_504_CSVCSEPIMPEPGR (UniProt Q15942)”, the “probe-labelled cysteine peptide fold change” value is -0.12.
For the target “ZYX_Q15942_504+507_CSVCSEPIMPEPGRDETVR (UniProt Q15942)”, the “probe-labelled cysteine peptide fold change” value was -0.145.
As to “ZYX_Q15942_470+473_AYHPHCFTCVVCAR (UniProt Q15942)”, the “probe-labelled cysteine peptide fold change” value was 0.0173.
The same measure, in the same setting: to “ZNHIT6_Q9NWK9_244_YSCSLPCVK (UniProt Q9NWK9)” belongs -0.0684.
As to “ZNFX1_Q9P2E3_1554_LLVCGHPCIGLCGEPCPK (UniProt Q9P2E3)”, the “probe-labelled cysteine peptide fold change” value amounted to 0.11.
As for “ZNF691_Q5VV52_257_THTGERPYECTECGR (UniProt Q5VV52)”, the “probe-labelled cysteine peptide fold change” value worked out at 0.08.
With “ZW10_O43264_650_LGIVWQDVLPVNIYCK (UniProt O43264)”, the “probe-labelled cysteine peptide fold change” value is 0.0695.
For “ZNHIT2_Q9UHR6_188_VLGDVPGACTPVVPTR (UniProt Q9UHR6)”, the “probe-labelled cysteine peptide fold change” value is -0.0875.
In the case of “ZYX_Q15942_537+553_CEDCGKPLSIEADDNGCFPLDGHVLCR (UniProt Q15942)”, the “probe-labelled cysteine peptide fold change” value was -0.132.
As for “ZSWIM8_A7E2V4_1365_AAAELALSCLPHAHALNPNEIQR (UniProt A7E2V4)”, the “probe-labelled cysteine peptide fold change” value came out at 0.386.
Turning to “ZYX_Q15942_444_CNTCGEPITDR (UniProt Q15942)”, the “probe-labelled cysteine peptide fold change” value is -0.071.
In the case of “ZW10_O43264_477_VSNTQYHEVMNLEPENTLDQHSFSLPTCR (UniProt O43264)”, the “probe-labelled cysteine peptide fold change” value is -0.109.
On to “ZNRD1_Q9P1U0_90_CGHEGMAYHTR (UniProt Q9P1U0)”, for which the “probe-labelled cysteine peptide fold change” value was -0.117.

Source of the values: the supplement of paper PMC12067093, “Discovery and optimisation of a covalent ligand for TRIM25 and its application to targeted protein ubiquitination” (Chemical Science, 2025).
